Source: patent US8415106B2, “Cell-based screen for agents useful for reducing neuronal demyelination or promoting neuronal remyelination” (Myelin Repair Foundation, Inc., priority 2005, dated 2013)

Test: ELISA analysis of IFN-γ protein in the CNS of double transgenic mice
Format: in vivo
Conditions: for level of INF-γ (ELISA): EAE

B1: IFN-γ: pleotropic cytokine secreted by activated T lymphocytes and natural killer cells; recombinant rat IFN-γ added to cultures or transgenically expressed in mouse CNS (protein, UniProt P01581 23-156, looked up)
Interferon gamma: QGTLIESLESLKNYFNSSSMDAMEGKSLLLDIWRNWQKDGNTKILESQIISFYLRLFEVLKDNQAISNNISVIESHLITNFFSNSKAKKDAFMSIAKFEVNNPQIQHKAVNELIRVIHQLSPESSLRKRKRSRC
IFN-γ in the forebrain (DOX− double transgenic mice, after 2 weeks of cuprizone treatment and removal of doxycycline): approximately 20 pg/mg | level of INF-γ (ELISA) (PID50, DOX− mice, control DOX+ 6.22): 40.24 pg/mg | level of INF-γ (ELISA) (peak of disease PID 17, similar in DOX+ and DOX− mice): 60 pg/mg
